PubChem BioAssay AID493246 | Drosophila RNAi Screening Center – 2011
Screen: 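Genes fly cells need to grow and stay alive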 (primary screen). Cell system: Drosophila Kc and S2R+ cells. Knock-down reagent: long dsRNA against Drosophila genes. Measurement: 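Cell number per well after knock-down, printed as raw plate values; calls were based on per-plate z-scores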. Scale: Kc cell number and S2R+ cell number: higher = more cells remaining. Hit rule: 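Active when the per-plate z-score of cell number is 3 or more in the direction of fewer cells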.
In all, the deposit lists about 21,000 reagents; this is an unselected part of those that have a named target and a result. In the full data, 429 (2%) are marked active. 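Values are raw and not normalised between plates; calls rest on per-plate z-scores that were not deposited.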 A plus sign joins genes that one reagent is predicted to hit. No sequences are given here. Not given: the amount of reagent, the time to read-out.

{"gene": "Tango9", "DRSC id": "DRSC14173", "Kc cell number, rep 1": 1.55e6, "Kc cell number, rep 2": 1.66e6, "S2R+ cell number, rep 1": 1.24e6, "S2R+ cell number, rep 2": 1.30e6, "outcome": "inactive"}
{"gene": "Ugt35E2", "DRSC id": "DRSC16083", "Kc cell number, rep 1": 1.59e6, "Kc cell number, rep 2": 1.49e6, "S2R+ cell number, rep 1": 1.26e6, "S2R+ cell number, rep 2": 1.36e6, "outcome": "inactive"}
{"gene": "CG6660", "DRSC id": "DRSC16087", "Kc cell number, rep 1": 1.67e6, "Kc cell number, rep 2": 1.94e6, "S2R+ cell number, rep 1": 1.26e6, "S2R+ cell number, rep 2": 1.33e6, "outcome": "inactive"}
{"gene": "Uqcc1 + CG9948", "DRSC id": "DRSC09690", "Kc cell number, rep 1": 1.24e6, "Kc cell number, rep 2": 1.21e6, "S2R+ cell number, rep 1": 1.24e6, "S2R+ cell number, rep 2": 1.25e6, "outcome": "inactive"}
{"gene": "CG17917", "DRSC id": "DRSC12570", "Kc cell number, rep 1": 1.49e6, "Kc cell number, rep 2": 1.61e6, "S2R+ cell number, rep 1": 1.17e6, "S2R+ cell number, rep 2": 1.25e6, "outcome": "inactive"}
{"gene": "CG9107", "DRSC id": "DRSC03138", "Kc cell number, rep 1": 1.32e6, "Kc cell number, rep 2": 1.62e6, "S2R+ cell number, rep 1": 4.75e5, "S2R+ cell number, rep 2": 1.95e5, "outcome": "inactive"}
{"gene": "Rheb", "DRSC id": "DRSC12148", "Kc cell number, rep 1": 1.46e6, "Kc cell number, rep 2": 1.53e6, "S2R+ cell number, rep 1": 8.96e5, "S2R+ cell number, rep 2": 1.04e6, "outcome": "inactive"}

The list goes on (2 carried over from the part before).
{"gene": "CG9107", "DRSC id": "DRSC03138", "Kc cell number, rep 1": 1.32e6, "Kc cell number, rep 2": 1.62e6, "S2R+ cell number, rep 1": 4.75e5, "S2R+ cell number, rep 2": 1.95e5, "outcome": "inactive"}
{"gene": "Rheb", "DRSC id": "DRSC12148", "Kc cell number, rep 1": 1.46e6, "Kc cell number, rep 2": 1.53e6, "S2R+ cell number, rep 1": 8.96e5, "S2R+ cell number, rep 2": 1.04e6, "outcome": "inactive"}
{"gene": "CG33770", "DRSC id": "DRSC11717", "Kc cell number, rep 1": 1.70e6, "Kc cell number, rep 2": 1.83e6, "S2R+ cell number, rep 1": 1.42e6, "S2R+ cell number, rep 2": 1.47e6, "outcome": "inactive"}
{"gene": "CG30379", "DRSC id": "DRSC05070", "Kc cell number, rep 1": 1.47e6, "Kc cell number, rep 2": 1.53e6, "S2R+ cell number, rep 1": 1.01e6, "S2R+ cell number, rep 2": 1.07e6, "outcome": "inactive"}
{"gene": "Pex23", "DRSC id": "DRSC10323", "Kc cell number, rep 1": 1.39e6, "Kc cell number, rep 2": 1.47e6, "S2R+ cell number, rep 1": 1.26e6, "S2R+ cell number, rep 2": 1.27e6, "outcome": "inactive"}
{"gene": "Pex23", "DRSC id": "DRSC10645", "Kc cell number, rep 1": 1.53e6, "Kc cell number, rep 2": 1.58e6, "S2R+ cell number, rep 1": 1.25e6, "S2R+ cell number, rep 2": 1.39e6, "outcome": "inactive"}
{"gene": "MFS1", "DRSC id": "DRSC04115", "Kc cell number, rep 1": 1.46e6, "Kc cell number, rep 2": 1.52e6, "S2R+ cell number, rep 1": 1.33e6, "S2R+ cell number, rep 2": 1.37e6, "outcome": "inactive"}
{"gene": "Boh1", "DRSC id": "DRSC14487", "Kc cell number, rep 1": 5.90e5, "S2R+ cell number, rep 1": 8.67e5, "outcome": "inactive"}
{"gene": "uri", "DRSC id": "DRSC04111", "Kc cell number, rep 1": 1.40e6, "Kc cell number, rep 2": 1.47e6, "S2R+ cell number, rep 1": 1.18e6, "S2R+ cell number, rep 2": 1.26e6, "outcome": "inactive"}
{"gene": "ATPsyndelta", "DRSC id": "DRSC18248", "Kc cell number, rep 1": 1.45e6, "Kc cell number, rep 2": 1.44e6, "S2R+ cell number, rep 1": 7.78e5, "S2R+ cell number, rep 2": 9.13e5, "outcome": "inactive"}
{"gene": "IKKbeta", "DRSC id": "DRSC16714", "Kc cell number, rep 1": 1.55e6, "Kc cell number, rep 2": 1.63e6, "S2R+ cell number, rep 1": 1.21e6, "S2R+ cell number, rep 2": 1.27e6, "outcome": "inactive"}
{"gene": "CG9117", "DRSC id": "DRSC03141", "Kc cell number, rep 1": 1.61e6, "Kc cell number, rep 2": 1.80e6, "S2R+ cell number, rep 1": 1.14e6, "S2R+ cell number, rep 2": 1.30e6, "outcome": "inactive"}
{"gene": "Crtc", "DRSC id": "DRSC10578", "Kc cell number, rep 1": 1.37e6, "Kc cell number, rep 2": 1.44e6, "S2R+ cell number, rep 1": 7.76e5, "S2R+ cell number, rep 2": 8.62e5, "outcome": "active"}
{"gene": "Cyp311a1", "DRSC id": "DRSC20239", "Kc cell number, rep 1": 1.59e6, "Kc cell number, rep 2": 1.60e6, "S2R+ cell number, rep 1": 1.09e6, "S2R+ cell number, rep 2": 1.23e6, "outcome": "inactive"}
{"gene": "CG6830", "DRSC id": "DRSC16124", "Kc cell number, rep 1": 1.63e6, "Kc cell number, rep 2": 1.77e6, "S2R+ cell number, rep 1": 1.26e6, "S2R+ cell number, rep 2": 1.35e6, "outcome": "inactive"}
{"gene": "Rtca", "DRSC id": "DRSC18517", "Kc cell number, rep 1": 4.98e5, "S2R+ cell number, rep 1": 8.14e5, "outcome": "inactive"}
